One substance from publication PMC3565990 can be followed below.

Sequences of proteins named here, by UniProt entry; tags and fusion partners are left off.
UniProt P29351: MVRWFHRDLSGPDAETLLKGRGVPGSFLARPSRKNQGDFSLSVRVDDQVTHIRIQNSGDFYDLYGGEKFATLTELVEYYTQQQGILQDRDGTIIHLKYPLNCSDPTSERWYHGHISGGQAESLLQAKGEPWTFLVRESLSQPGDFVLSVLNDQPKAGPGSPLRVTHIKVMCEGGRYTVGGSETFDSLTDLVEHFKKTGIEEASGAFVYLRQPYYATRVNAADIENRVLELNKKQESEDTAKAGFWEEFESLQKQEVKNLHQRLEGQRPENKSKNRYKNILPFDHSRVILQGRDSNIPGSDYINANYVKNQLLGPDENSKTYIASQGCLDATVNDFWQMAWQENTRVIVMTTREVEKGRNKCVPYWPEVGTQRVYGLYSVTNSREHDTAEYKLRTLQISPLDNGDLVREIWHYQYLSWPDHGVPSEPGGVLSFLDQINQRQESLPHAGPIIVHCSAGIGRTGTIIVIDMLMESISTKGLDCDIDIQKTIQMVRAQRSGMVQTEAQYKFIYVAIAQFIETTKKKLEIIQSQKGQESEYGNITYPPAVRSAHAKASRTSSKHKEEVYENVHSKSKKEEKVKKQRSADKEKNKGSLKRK

Results are given in words; binding and its absence hold for the method and conditions named. Binding seen in cells or lysates may run through a third protein. Where a sequence is shown, tags or fusion partners need not be part of it.

This test concerns the target T1, FLAG-tagged human CD72fl YF mutant (CD72flYF) (human) (UniProt P21854).
T1 sequence: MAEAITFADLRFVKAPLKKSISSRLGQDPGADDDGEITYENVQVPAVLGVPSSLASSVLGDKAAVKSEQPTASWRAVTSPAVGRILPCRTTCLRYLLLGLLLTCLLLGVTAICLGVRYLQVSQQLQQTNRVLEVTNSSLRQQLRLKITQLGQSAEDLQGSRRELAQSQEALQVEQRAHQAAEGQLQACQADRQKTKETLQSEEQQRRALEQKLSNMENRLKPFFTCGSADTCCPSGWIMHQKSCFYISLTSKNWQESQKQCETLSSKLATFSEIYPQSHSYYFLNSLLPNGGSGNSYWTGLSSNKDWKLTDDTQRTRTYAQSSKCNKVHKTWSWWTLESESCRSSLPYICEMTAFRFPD
As to the kind of experiment: co-IP; K46μv transfectants stimulated with 0.2 μg/ml NP-BSA, lysed in Triton X-100 lysis buffer; FLAG-tagged CD72 immunoprecipitated with anti-FLAG Ab and protein G-Sepharose; Western blot with anti-SHP-1 Ab.

On to “Src homology 2 domain-containing protein tyrosine phosphatase-1 (SHP-1) (from UniProt P29351 1-595) (enzyme)”, for which the binding result is listed as “no binding”.
